Hit rate of the full screen: of about 410,000 compounds, about 18,000 (4.4%) were called active. The shares of active, inactive and inconclusive entries below differ from those in the screen. Rule as the data show it: active = activity change below about -60%; inconclusive = no clear call, values can overlap the other calls; inactive = above about -39%.
Assay: qHTS Assay for inhibitors of the human cytomegalovirus (HCMV)
Details: HFF cells, HCMV-luciferase reporter, 72 h; at 57.5 µM; hits give low values
In short: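 Two compound doses tested in HFFs infected with HCMV-luciferase, MOI 1 PFU/cell, 72 h at 37C. Lysate luminescence read with OneGlo; data normalized against buffer-only and 10uM Salinomycin inhibitor controls.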
% is scaled to controls: 0 for no effect and ±100 for the full control effect.

| SMILES | activity change, negative = inhibition |
| --- | --- |
| CCOC(=O)[C@@H]1[C@H]2COc3ccccc3[C@@H]2N2C(=O)N(c3ccc(Br)cc3)C(=O)[C@@]12C | inactive: -16.6% |
| O=C(c1ccco1)N1CCN(C(c2cccs2)c2nnnn2C2CCCC2)CC1 (stereo not drawn) | active: -101% |
| Cc1ccccc1N1CC(C(=O)Nc2ccc(S(=O)(=O)N3CCCC3)cc2)CC1=O (stereo not drawn) | inconclusive: -45.1% |
| COC(=O)c1ccccc1S(=O)(=O)NCc1nc2nc(C)cc(C)n2n1 | inactive: 43.4% |
| Nc1cc(=O)[nH]c(=O)n1CC1CC1 | inconclusive: -47.2% |
| COc1cc(OC)cc(-c2nc(-c3cccc(C)c3)no2)c1 | inactive: 60.7% |
| CC(C)c1ccc(NC(=O)COC(=O)CSc2nnc(N)s2)cc1 | inconclusive: -51.5% |
| COCCN(C(=O)CCl)C(C(=O)NC1CCCCC1)c1ccccc1C (stereo not drawn) | active: -97.5% |
| Cc1ccc(C)c(C(=O)CSc2n[nH]c(C(C)C)n2)c1 | inconclusive: -55.7% |
| Cc1ccc(N(C(=O)c2ccccc2Cl)C2=NC(C)CS2)c(C)c1 (stereo not drawn) | inconclusive: -46.4% |
| Cc1c(C(=O)Nc2ccc(F)cc2)oc2ccc(S(=O)(=O)N3CC(C)CC(C)C3)cc12 (stereo not drawn) | inactive: -12.2% |
| O=C(Nc1nc2ccccc2n1CCN1CCOCC1)c1ccc(COc2ccccc2Br)o1 | inconclusive: -44.5% |
| COCCn1nnnc1CN(Cc1cccnc1)Cc1cc2cc(OC)ccc2[nH]c1=O | inconclusive: -52.8% |
| CCOc1cccc(C(=O)Nc2ccc3ccccc3c2)c1 | inactive: -39.5% |
| N#CCC(=O)N/N=C/c1cc(-c2ccccc2)n(-c2ccc(Cl)cc2)c1-c1ccccc1 | inconclusive: -59% |
| O=S(=O)(c1cccc(-c2csc(-c3cccnc3)n2)c1)N1CCCCC1 | active: -69.4% |
| Fc1cccc2sc(N3CCCCC3)nc12 | inactive: 15.3% |
| COc1ccccc1C(C[N+](=O)[O-])c1c(N)n(C)c(=O)n(C)c1=O (stereo not drawn) | active: -97.1% |
| Cc1cc(C(=O)C(C)OC(=O)c2ccc(NC(=O)CC#N)cc2)c(C)n1-c1ccc(OC(F)F)cc1 (stereo not drawn) | inconclusive: -59.3% |
| O=C(Nc1cccc(C(=O)O)c1)/C(=C/c1ccc2c(c1)OCO2)NC(=O)c1cccc(Br)c1 | inconclusive: -50.1% |
| C=CCn1c(C)cc(C(=O)CSc2ccc(NC(C)=O)cc2)c1C | inconclusive: -52.3% |
| O=C(COc1cccc2cccnc12)Nc1ccccc1 | inconclusive: -45.7% |

| SMILES | activity change, negative = inhibition |
| --- | --- |
| CC(=O)N1CCc2cc(S(=O)(=O)NC(Cc3ccccc3)C(=O)Nc3cccc(C)c3)ccc21 (stereo not drawn) | inactive: -33.1% |
| N#Cc1nc(-c2cccs2)oc1NCC1CCCO1 (stereo not drawn) | inconclusive: -49.2% |
| CCN(CC)S(=O)(=O)c1cc([N+](=O)[O-])ccc1N1CCC(C(N)=O)CC1 | inconclusive: -48.9% |
| NC1=NC2(CCCC2)N=C(Nc2ccccc2)N1 | inconclusive: -56.9% |
| COc1cccc(C(O)c2nc(-c3cccc(C#N)c3)cs2)c1 (stereo not drawn) | inconclusive: -51.4% |
| COc1cc(C(=O)N2C(=O)CCC2=O)cc(OC)c1OC | inactive: 52.2% |
| Cc1cc(C(=O)COC(=O)c2cc(Cl)c(O)c(Cl)c2)c(C)n1C | inactive: 2.44% |
| COc1ccccc1NC(=O)CSc1ccc2nnc(CCNC(=O)c3ccccc3)n2n1 | inactive: -32.4% |
| CCOC(=O)c1c(C)[nH]c(C)c1C(=O)CSc1nnc(-c2ccc(OC(F)F)cc2)o1 | inconclusive: -41.3% |
| O=C(N/N=C/c1cccs1)c1cnccn1 | inactive: 19% |
| COc1cc(-c2cccs2)cc(=O)c2c(C)oc(C)c12 | inconclusive: -41.9% |
| O=C(Cc1cccc(F)c1)Nc1ccc2c(c1)CCC2 | active: -98.2% |
| O=S(=O)(NC1CC1)c1ccc(S(=O)(=O)N2CCCc3ccccc32)cc1 | inconclusive: -57.2% |
| COc1ccc(OCCNS(=O)(=O)c2cccc([N+](=O)[O-])c2)cc1 | inconclusive: -44.8% |
| C=Cn1ccnc1P(=S)(c1ccc2c(c1)c1ccccc1n2CC)c1nccn1C=C | inconclusive: -45.3% |
| O=C(O)C1=C[C@@H](c2ccccc2)C[C@@H](OCCCCO)O1 | inactive: -17.1% |
| CCCCC(=O)NC(c1ccc(N(CC)CC)cc1)c1ccc2cccnc2c1O (stereo not drawn) | active: -95.7% |
| CCOC(=O)c1sc(/N=C/c2c(O)ccc3ccccc23)cc1C | inconclusive: -56.6% |
| CCN(C[C@H]1N[C@@](Cc2ccccc2)(C(=O)OC)[C@H]2C(=O)N(Cc3ccccc3)C(=O)[C@@H]12)C(=O)Nc1ccc(C(F)(F)F)cc1 | inconclusive: -56.4% |
| O=C(NNC1=NS(=O)(=O)c2ccccc21)c1ccc(Cl)cc1 | inconclusive: -44.9% |
| Cc1cc(NC(=O)COc2cccc(C)c2C)no1 | inconclusive: -47.8% |
| Cc1noc(C)c1S(=O)(=O)N1CCC(C(=O)Nc2ccc(Br)cc2)CC1 | inconclusive: 0% |

| SMILES | activity change, negative = inhibition |
| --- | --- |
| CCOC(=O)c1c(NS(=O)(=O)c2ccccc2)n(CCCOC)c2nc3ccccc3nc12 | inconclusive: -52.1% |
| OC[C@@H]1CN(Cc2ccc(-c3ccccc3)cc2)C[C@H](n2cnc3c(NC4CCCC4)ncnc32)O1 | active: -84.2% |
| C#CCN(C(=O)c1ccc(OC)c(OC2CCN(C(C)C)CC2)c1)C1CCCCC1 | inconclusive: -47.8% |
| Cc1ccc(-c2nc(CS(=O)(=O)CC(=O)N3CCN(C)CC3)c(C)o2)cc1 | inconclusive: -40.7% |
| CC(=O)Nc1ccc(NC(=O)c2oc3cc(C)c(C)cc3c2C)cc1 | inconclusive: -55.9% |
| COc1nc(-c2ccccc2)ccc1-c1noc(-c2cccnc2)n1 | active: -104% |
| Cc1nn(CC(=O)NCCCN2CCCCC2C)c(=O)c2cccn12 (stereo not drawn) | inconclusive: -41.4% |
| CCCCc1ccc(NC(=O)N[C@H](C(=O)O)C(C)C)cc1 | inconclusive: -45.2% |
| CC(C)c1ccc(NC(=O)c2ccc(F)c(S(=O)(=O)N3CCCCCC3)c2)cc1 | inconclusive: -43.5% |
| COc1cc(/C=N/NC(=O)c2ccncc2)ccc1OCCN1CCCCC1 | inconclusive: -56% |
| Cc1ccc(S(=O)(=O)N2CCCCC2)cc1NC(=O)COC(=O)c1ccc(O)cc1 | inactive: -3.52% |
| S=C(NCCc1ccccn1)Nc1ccc(Cl)cc1 | active: -77.9% |
| O=c1cc(N2CCOCC2)[nH]c(=O)n1-c1ccc(Br)cc1 | inconclusive: -47.3% |
| Clc1ccc(CNCc2cccs2)cc1Cl | inconclusive: -43.7% |
| O=C(Nc1ccc(F)cc1F)c1cncc(Br)c1 | inconclusive: -56.7% |
| Cc1cccc(C(=O)Nc2ccc(C(=O)Nc3ccc(O)cc3)cc2)c1 | inconclusive: -41.1% |
| O=C(CSc1ccc2nnc(-c3ccncc3)n2n1)Nc1ccc2c(c1)OCCO2 | inconclusive: -48.3% |
| COc1cc(OC)cc(C(=O)OCC(=O)NCc2ccc3c(c2)OCO3)c1 | inconclusive: -40.6% |
| Cc1ccc(N(C)S(=O)(=O)c2cccc(C(=O)Nc3nc4ccccc4[nH]3)c2)cc1 | active: -87.4% |
| COC(=O)NNC(=S)NCc1ccccc1 | inconclusive: -46.4% |
| COc1ccc(-c2c[n+]3c(n2-c2ccc(C)cc2)CCCCC3)cc1 | active: -97.4% |
| CCCCCC(=O)N/N=C/c1ccccc1[N+](=O)[O-] | inconclusive: -45.7% |

| SMILES | activity change, negative = inhibition |
| --- | --- |
| CCN(CC)C1CCN(C(=O)c2ccc(OC3CCN(CCc4ccccc4)CC3)cc2)C1 (stereo not drawn) | inactive: -14.4% |
| O=C(Nc1cccc2ccccc12)N1CCC2(CC1)OCCO2 | inconclusive: -48.5% |
| CNC(=O)Cn1cc(S(=O)(=O)Cc2ccccc2F)c2ccccc21 | inactive: 0% |
| CC(C)(C)C(=O)Nc1nc(=S)ss1 | inconclusive: -46.7% |
| CN(CCc1ccccn1)c1ccc([N+](=O)[O-])cn1 | inconclusive: -56.1% |
| O=C(C1CCC1)N1CCc2cc(S(=O)(=O)Nc3ccc4c(c3)OCCO4)ccc21 | active: -81.5% |
| COc1ccc(CN2C[C@H](COCc3ccccc3)Oc3cccc(F)c3S2(=O)=O)cc1 | inactive: -19.1% |
| CCC(C)(C)n1nnnc1C(c1cc2cc(C)ccc2[nH]c1=O)N1CCCc2ccccc21 (stereo not drawn) | inactive: -13.8% |
| CCOc1cc(OCC)cc(C(=O)NC(=S)Nc2cccc(C(F)(F)F)c2)c1 | inactive: -3.22% |
| CCOc1cc(NC(=O)c2ccccn2)c(OCC)cc1NC(=O)c1ccccc1 | active: -64% |
| O=C(OC1C2CCC1C1CN(CCc3ccccc3)CC12)c1ccccc1 (stereo not drawn) | active: -68.2% |
| O=C(NCc1ccco1)c1nc2c(nnn2Cc2ccccc2Cl)c(=O)[nH]1 | active: -97.7% |
| CCOC(=O)NC(=O)CSc1nc2ccc(C)cc2[nH]1 | inconclusive: -40.6% |
| COC(=O)c1cccc(Cn2c(Cl)c(/C=N/NC(=O)c3ccco3)sc2=O)c1 | inactive: 0% |
| CCN(CC)CCN(Cc1cc2cc(C)ccc2[nH]c1=O)C(=S)NCc1ccco1 | inconclusive: -54.4% |
| CC1CCCN(CCOCCOc2ccc(Br)cc2Cl)C1 (stereo not drawn) | active: -63.6% |
| CCc1ccc(Cn2c(CNS(=O)(=O)c3ccc(F)c(Cl)c3)nc3cccnc32)cc1 | inactive: 21.1% |
| CCCN1CCN(C(=O)C2CCN(c3nnc(C)c4c(C)n(-c5ccc(C)cc5)nc34)CC2)CC1 | inconclusive: -53.3% |
| COc1ccc(CSC(=S)NNc2ccccc2)cc1 | inactive: 36.9% |
| Cc1ccc(C)c(N2CCN(C(=O)Cn3ncc4ccsc4c3=O)CC2)c1 | inconclusive: -41.9% |
| COc1ccc(C(=O)c2ccccc2)c2c(O)ccc(C(=O)c3ccccc3)c12 | active: -78.9% |
| CCCCOc1ccc(C(=O)Nc2ccc(N3CCN(C(=O)C(C)C)CC3)cc2)cc1 | inconclusive: -43.7% |

For reference, part of the list above.

| SMILES | activity change, negative = inhibition |
| --- | --- |
| COC(=O)NNC(=S)NCc1ccccc1 | inconclusive: -46.4% |
| COc1ccc(-c2c[n+]3c(n2-c2ccc(C)cc2)CCCCC3)cc1 | active: -97.4% |
| CCCCCC(=O)N/N=C/c1ccccc1[N+](=O)[O-] | inconclusive: -45.7% |
| CCN(CC)C1CCN(C(=O)c2ccc(OC3CCN(CCc4ccccc4)CC3)cc2)C1 (stereo not drawn) | inactive: -14.4% |
| O=C(Nc1cccc2ccccc12)N1CCC2(CC1)OCCO2 | inconclusive: -48.5% |
| CNC(=O)Cn1cc(S(=O)(=O)Cc2ccccc2F)c2ccccc21 | inactive: 0% |
| CC(C)(C)C(=O)Nc1nc(=S)ss1 | inconclusive: -46.7% |
| CN(CCc1ccccn1)c1ccc([N+](=O)[O-])cn1 | inconclusive: -56.1% |
| O=C(C1CCC1)N1CCc2cc(S(=O)(=O)Nc3ccc4c(c3)OCCO4)ccc21 | active: -81.5% |
| COc1ccc(CN2C[C@H](COCc3ccccc3)Oc3cccc(F)c3S2(=O)=O)cc1 | inactive: -19.1% |
| CCC(C)(C)n1nnnc1C(c1cc2cc(C)ccc2[nH]c1=O)N1CCCc2ccccc21 (stereo not drawn) | inactive: -13.8% |
| CCOc1cc(OCC)cc(C(=O)NC(=S)Nc2cccc(C(F)(F)F)c2)c1 | inactive: -3.22% |
| CCOc1cc(NC(=O)c2ccccn2)c(OCC)cc1NC(=O)c1ccccc1 | active: -64% |
| O=C(OC1C2CCC1C1CN(CCc3ccccc3)CC12)c1ccccc1 (stereo not drawn) | active: -68.2% |
| O=C(NCc1ccco1)c1nc2c(nnn2Cc2ccccc2Cl)c(=O)[nH]1 | active: -97.7% |
| CCOC(=O)NC(=O)CSc1nc2ccc(C)cc2[nH]1 | inconclusive: -40.6% |
| COC(=O)c1cccc(Cn2c(Cl)c(/C=N/NC(=O)c3ccco3)sc2=O)c1 | inactive: 0% |
| CCN(CC)CCN(Cc1cc2cc(C)ccc2[nH]c1=O)C(=S)NCc1ccco1 | inconclusive: -54.4% |
| CC1CCCN(CCOCCOc2ccc(Br)cc2Cl)C1 (stereo not drawn) | active: -63.6% |
| CCc1ccc(Cn2c(CNS(=O)(=O)c3ccc(F)c(Cl)c3)nc3cccnc32)cc1 | inactive: 21.1% |
| CCCN1CCN(C(=O)C2CCN(c3nnc(C)c4c(C)n(-c5ccc(C)cc5)nc34)CC2)CC1 | inconclusive: -53.3% |
| COc1ccc(CSC(=S)NNc2ccccc2)cc1 | inactive: 36.9% |
